According to patent US20170327576A1:
Results are given in words; binding and its absence hold for the method and conditions named. Some results given as binding are weak or reduced against the parent protein; the word gives no strength.

Legend:
[1] = molecular target: T1, non-functional P2X7 receptor on live cancer cells or tumour tissue (human) (UniProt Q99572); test: flow cytometry, live PC3 cells
T1 sequence (chain, cis isomerisation at Pro210 in one or more monomers (the filing's definition)): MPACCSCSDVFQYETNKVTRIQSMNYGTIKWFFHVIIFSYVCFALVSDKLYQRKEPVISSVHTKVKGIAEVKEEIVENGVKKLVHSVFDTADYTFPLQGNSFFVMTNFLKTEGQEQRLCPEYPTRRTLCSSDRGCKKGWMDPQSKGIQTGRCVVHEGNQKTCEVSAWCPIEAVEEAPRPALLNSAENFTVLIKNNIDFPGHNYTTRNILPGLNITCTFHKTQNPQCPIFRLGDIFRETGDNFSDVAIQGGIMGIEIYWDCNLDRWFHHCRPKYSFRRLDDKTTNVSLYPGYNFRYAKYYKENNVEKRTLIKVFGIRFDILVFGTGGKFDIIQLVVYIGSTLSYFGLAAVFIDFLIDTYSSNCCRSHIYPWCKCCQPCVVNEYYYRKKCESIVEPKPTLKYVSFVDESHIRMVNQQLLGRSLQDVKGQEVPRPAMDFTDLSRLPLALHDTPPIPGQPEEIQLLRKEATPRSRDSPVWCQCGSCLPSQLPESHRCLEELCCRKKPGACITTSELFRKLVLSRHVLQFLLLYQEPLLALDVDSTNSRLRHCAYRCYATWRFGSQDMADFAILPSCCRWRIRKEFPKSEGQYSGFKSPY

[2] = molecular target: T1, non-functional P2X7 receptor on live cancer cells or tumour tissue (human); test: immunohistochemistry, Myc-tagged dAb
[3] = molecular target: T1, non-functional P2X7 receptor on live cancer cells or tumour tissue (human); test: immunohistochemistry, human melanoma tissue

Measured: binding

B1: PEP2-4 dAb (protein)
VH: EVQLLESGGGLVQPGGSLRLSCAASGFTFGMYNMSWVRQAPGKGLEWVSSINATGGRTYYADSVKGRFTISRDNSKNTLYLQMNSLRAEDTAVYYCAKFNGFSHRQYNFDYWGQGTLVTVSS
binds: all assays above
